# Counter-ions that a name gives are not always drawn. The list shows a part of the results. Single values are uncertain here, since repeats match poorly.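 ReNCell VM, a human fetal ventral-midbrain neural progenitor line, was differentiated without mitogens. Blinded raters scored images stained for doublecortin (early neurons) or tyrosine hydroxylase (dopaminergic neurons) against untreated wells (0 = no change). Scores were averaged across repeats and both raters, and compounds averaging 2 or more were selected as hits for retesting.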
# Columns and labels:
# ReNCell VM [1] = test: neuronal differentiation score (DCX+ cell fraction vs untreated, manual image score) (score (-3 to 3)); higher = more neuronal differentiation; settings: 2 uM, 2 weeks
# ReNCell VM [2] = test: dopaminergic neuron differentiation score (TH+ cell fraction vs untreated, manual image score) (score (0 to 3)); higher = more TH+ dopaminergic neuron differentiation; settings: 2 uM, 4 weeks, BDNF 10 ng/ml + GDNF 10 ng/ml
smiles,measurement,setting,value
Nc1ccn([C@@H]2O[C@H](CO)[C@@H](O)[C@H]2O)c(=O)n1,neuronal differentiation score,ReNCell VM [1]; library: Spectrum,inactive: 0
same,dopaminergic neuron differentiation score,ReNCell VM [2]; library: Spectrum,inactive: 0
C=C1C[C@@]23CC[C@H]4[C@@](C)(CCC[C@@]4(C)C(=O)O[C@@H]4O[C@H](CO)[C@@H](O)[C@H](O)[C@H]4O)[C@@H]2CC[C@]1(O[C@@H]1O[C@H](CO)[C@@H](O)[C@H](O)[C@H]1O[C@@H]1O[C@H](CO)[C@@H](O)[C@H](O)[C@H]1O)C3 [Stevioside],neuronal differentiation score,ReNCell VM [1]; library: Phytochemical,inactive: 0
same,dopaminergic neuron differentiation score,ReNCell VM [2]; library: Phytochemical,inactive: 0
CCc1cc2c(c(CC)n1)CCC(=O)N2Cc1ccc(-c2ccccc2-c2nn[nH]n2)cc1 [ZD 7155 hydrochloride],neuronal differentiation score,ReNCell VM [1]; library: Tocriscreen,inactive: 0
same,dopaminergic neuron differentiation score,ReNCell VM [2]; library: Tocriscreen,inactive: 0
O=S(=O)(NCCNC/C=C/c1ccc(Br)cc1)c1cccc2cnccc12 [H 89 dihydrochloride],neuronal differentiation score,ReNCell VM [1]; library: Tocriscreen,inactive: 0
same,dopaminergic neuron differentiation score,ReNCell VM [2]; library: Tocriscreen,inactive: 0
COc1ccc2[nH]c([S+]([O-])Cc3ncc(C)c(OC)c3C)nc2c1 (configuration not stated),neuronal differentiation score,ReNCell VM [1]; library: Spectrum,inactive: 0
same,dopaminergic neuron differentiation score,ReNCell VM [2]; library: Spectrum,inactive: 0
Nc1nc(N)nc(-c2cc(Cl)ccc2Cl)n1,neuronal differentiation score,ReNCell VM [1]; library: Spectrum,inactive: 0
same,dopaminergic neuron differentiation score,ReNCell VM [2]; library: Spectrum,inactive: 0
CCOc1cc(NC(C)=O)ccc1C(=O)OC,neuronal differentiation score,ReNCell VM [1]; library: Spectrum,inactive: 0
same,dopaminergic neuron differentiation score,ReNCell VM [2]; library: Spectrum,inactive: 0
COC(=O)C1=C(C)NC(C)=C(C(=O)OCCN2CCN(C(c3ccccc3)c3ccccc3)CC2)C1c1cccc([N+](=O)[O-])c1 (configuration not stated),neuronal differentiation score,ReNCell VM [1]; library: Spectrum,inactive: 0
same,dopaminergic neuron differentiation score,ReNCell VM [2]; library: Spectrum,inactive: 0
CCCCOc1ccc(OCCCN2CCOCC2)cc1,neuronal differentiation score,ReNCell VM [1]; library: Spectrum,inactive: 0
same,dopaminergic neuron differentiation score,ReNCell VM [2]; library: Spectrum,inactive: 0
COc1c2occc2c(OC)c2c(=O)cc(C)oc12 [Khelline],neuronal differentiation score,ReNCell VM [1]; library: Phytochemical,inactive: 0
same,dopaminergic neuron differentiation score,ReNCell VM [2]; library: Phytochemical,inactive: 0
COc1cc(-c2coc3cc(O)c(OC)c(O)c3c2=O)cc(O)c1OC,neuronal differentiation score,ReNCell VM [1]; library: Spectrum,inactive: 0
same,dopaminergic neuron differentiation score,ReNCell VM [2]; library: Spectrum,inactive: 0
O=C1N=C(O)NC1(c1ccccc1)c1ccccc1,neuronal differentiation score,ReNCell VM [1]; library: Spectrum,inactive: 0
same,dopaminergic neuron differentiation score,ReNCell VM [2]; library: Spectrum,inactive: 0
c1ccc(C2CN3CCSC3=N2)cc1 (configuration not stated),neuronal differentiation score,ReNCell VM [1]; library: Spectrum,inactive: 0
same,dopaminergic neuron differentiation score,ReNCell VM [2]; library: Spectrum,inactive: 0
CC(C)NCC(O)COc1ccc(CC(N)=O)cc1 (configuration not stated),neuronal differentiation score,ReNCell VM [1]; library: Spectrum,inactive: 0
same,dopaminergic neuron differentiation score,ReNCell VM [2]; library: Spectrum,inactive: 0
CC1NC(=O)NC1=O (configuration not stated),neuronal differentiation score,ReNCell VM [1]; library: Spectrum,inactive: 0
same,dopaminergic neuron differentiation score,ReNCell VM [2]; library: Spectrum,inactive: 0
CN1C(C(=O)Nc2ccccn2)=C(O)c2ccccc2S1(=O)=O,neuronal differentiation score,ReNCell VM [1]; library: Spectrum,inactive: 0
same,dopaminergic neuron differentiation score,ReNCell VM [2]; library: Spectrum,inactive: 1
CC1(C)[C@H](C(=O)O)N2C(=O)C[C@H]2S1(=O)=O [Sulbactam],neuronal differentiation score,ReNCell VM [1]; library: Prestwick,inactive: 0
same,dopaminergic neuron differentiation score,ReNCell VM [2]; library: Prestwick,inactive: 0
Nc1cc(-c2ccncc2)c[nH]c1=O,neuronal differentiation score,ReNCell VM [1]; library: Spectrum,inactive: 1
same,dopaminergic neuron differentiation score,ReNCell VM [2]; library: Spectrum,inactive: 1
COc1cc(O)c(C(=O)c2ccccc2)cc1S(=O)(=O)O,neuronal differentiation score,ReNCell VM [1]; library: Spectrum,inactive: 0
same,dopaminergic neuron differentiation score,ReNCell VM [2]; library: Spectrum,inactive: 0
C=CC1=C(C(=O)O)N2C(=O)[C@@H](NC(=O)/C(=N\O)c3csc(N)n3)[C@H]2SC1,neuronal differentiation score,ReNCell VM [1]; library: Spectrum,inactive: 0
same,dopaminergic neuron differentiation score,ReNCell VM [2]; library: Spectrum,inactive: 0
CC1CC(OC(=O)C(O)c2ccccc2)CC(C)(C)N1C (configuration not stated) [Eucatropine hydrochloride],neuronal differentiation score,ReNCell VM [1]; library: Prestwick,inactive: 0
same,dopaminergic neuron differentiation score,ReNCell VM [2]; library: Prestwick,inactive: 0
NC12CC3CC(CC(C3)C1)C2,neuronal differentiation score,ReNCell VM [1]; library: Spectrum,inactive: 0
same,dopaminergic neuron differentiation score,ReNCell VM [2]; library: Spectrum,inactive: 0
N#C/C(=C/c1ccc(O)c(O)c1)C(=O)N1CCc2ccccc21 [Tyrphostin AG 528],neuronal differentiation score,ReNCell VM [1]; library: LOPAC,inactive: 0
same,dopaminergic neuron differentiation score,ReNCell VM [2]; library: LOPAC,inactive: 0
C=C[C@H]1CN2CC[C@H]1C[C@H]2[C@H](O)c1ccnc2ccc(OC)cc12 [Quinine sulfate],neuronal differentiation score,ReNCell VM [1]; library: LOPAC,inactive: 0
same,dopaminergic neuron differentiation score,ReNCell VM [2]; library: LOPAC,inactive: 0
Cc1cnc(C(=O)O)c[n+]1[O-],neuronal differentiation score,ReNCell VM [1]; library: Spectrum,inactive: 0
same,dopaminergic neuron differentiation score,ReNCell VM [2]; library: Spectrum,inactive: 0
COc1ccc(C(=O)NCc2cccnc2)cc1C(=O)NCc1cccnc1 [Picotamide],neuronal differentiation score,ReNCell VM [1]; library: LOPAC,inactive: 1
same,dopaminergic neuron differentiation score,ReNCell VM [2]; library: LOPAC,inactive: 0
CN1C(=O)CC[C@H]1c1cccnc1 [Cotinine (-)],neuronal differentiation score,ReNCell VM [1]; library: Phytochemical,inactive: 0
same,dopaminergic neuron differentiation score,ReNCell VM [2]; library: Phytochemical,inactive: 0
Clc1cccc2c1CN(C1=NCCN1)C2,neuronal differentiation score,ReNCell VM [1]; library: Tocriscreen,inactive: 0
same,dopaminergic neuron differentiation score,ReNCell VM [2]; library: Tocriscreen,inactive: 0
O=C(O)c1ccc[n+]([O-])c1,neuronal differentiation score,ReNCell VM [1]; library: Spectrum,inactive: 0
same,dopaminergic neuron differentiation score,ReNCell VM [2]; library: Spectrum,inactive: 0
c1ccc(-c2[nH]ncc2-c2ccnc3ccccc23)nc1,neuronal differentiation score,ReNCell VM [1]; library: Tocriscreen,inactive: 0
same,dopaminergic neuron differentiation score,ReNCell VM [2]; library: Tocriscreen,active: 3
COc1ccc(-c2coc3c(O)c(OC)ccc3c2=O)cc1,neuronal differentiation score,ReNCell VM [1]; library: Spectrum,inactive: 0
same,dopaminergic neuron differentiation score,ReNCell VM [2]; library: Spectrum,inactive: 0
C=C1C(=O)O[C@@H]2C[C@@]3(C)CCC[C@H](C)C3=C[C@H]12,neuronal differentiation score,ReNCell VM [1]; library: Spectrum,inactive: 0
same,dopaminergic neuron differentiation score,ReNCell VM [2]; library: Spectrum,inactive: 0
Cc1cc(C(C)(C)C)cc(C)c1CC1=NCCN1,neuronal differentiation score,ReNCell VM [1]; library: Spectrum,inactive: 0
same,dopaminergic neuron differentiation score,ReNCell VM [2]; library: Spectrum,inactive: 0
CC(C)NCC(O)c1ccc(O)c(O)c1 (stereo not drawn) [S(+)-Isoproterenol (+)-bitartrate],neuronal differentiation score,ReNCell VM [1]; library: LOPAC,inactive: 1
same,dopaminergic neuron differentiation score,ReNCell VM [2]; library: LOPAC,inactive: 0
CN1C(=O)CC[C@H]1c1cccnc1,neuronal differentiation score,ReNCell VM [1]; library: Spectrum,inactive: 0
same,dopaminergic neuron differentiation score,ReNCell VM [2]; library: Spectrum,inactive: 0
CC(C)N1CCN(c2ccc(OCC3COC(Cn4cncn4)(c4ccc(Cl)cc4Cl)O3)cc2)CC1 (configuration not stated) [Terconazole],neuronal differentiation score,ReNCell VM [1]; library: Prestwick,inactive: 0
same,dopaminergic neuron differentiation score,ReNCell VM [2]; library: Prestwick,inactive: 0

# Reprinted at random: five records from the list
smiles,measurement,setting,value
Cc1cnc(C(=O)O)c[n+]1[O-],dopaminergic neuron differentiation score,ReNCell VM [2]; library: Spectrum,inactive: 0
O=C(O)c1ccc[n+]([O-])c1,neuronal differentiation score,ReNCell VM [1]; library: Spectrum,inactive: 0
Nc1nc(N)nc(-c2cc(Cl)ccc2Cl)n1,dopaminergic neuron differentiation score,ReNCell VM [2]; library: Spectrum,inactive: 0
CC1NC(=O)NC1=O (configuration not stated),dopaminergic neuron differentiation score,ReNCell VM [2]; library: Spectrum,inactive: 0
COc1ccc(C(=O)NCc2cccnc2)cc1C(=O)NCc1cccnc1 [Picotamide],neuronal differentiation score,ReNCell VM [1]; library: LOPAC,inactive: 1
